Results on 42 sequences are retold here after paper PMC7819943, “Rice protein-binding microarrays: a tool to detect cis-acting elements near promoter regions in rice”.

The chains behind the UniProt entries cited, without tags or fusion partners.
UniProt Q0JBA9, entry or part of it: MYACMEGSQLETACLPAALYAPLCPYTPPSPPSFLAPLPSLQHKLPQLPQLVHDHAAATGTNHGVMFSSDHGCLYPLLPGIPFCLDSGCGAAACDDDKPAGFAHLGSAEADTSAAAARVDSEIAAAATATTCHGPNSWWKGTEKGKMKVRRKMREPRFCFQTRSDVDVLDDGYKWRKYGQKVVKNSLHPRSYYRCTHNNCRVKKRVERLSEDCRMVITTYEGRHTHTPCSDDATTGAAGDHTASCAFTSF

The other results are listed elsewhere or left out.

The target in the test is OsWRKY34 (Oryza sativa, UniProt Q0JBA9 1-250). As to the kind of experiment: protein-binding microarray (RPBM); PBS, 2% BSA, 51.3 ng/ul salmon testes DNA, 50 uM zinc acetate, 200 nM TF, 25 C, 1 h; high values mean tight binding. The note with it: protein: recombinant; tags: N-terminal polyhistidine and DsRed monomer fusion (pET32a); label: CyDye5-dUTP incorporated in the synthesized complementary strand; 3' TTTTT single-stranded linker to array surface; dsDNA, one strand shown. In outline: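 Transcription factors were made in E. coli BL21-CodonPlus as N-terminal fusions to a polyhistidine tag and DsRed, then purified on Ni–NTA. After primer extension with Cy5-dUTP and blocking with 2% BSA, a custom Agilent array was exposed for 1 h at 25 °C to 200 nM protein in PBS, 2% BSA, salmon testes DNA and 50 µM zinc acetate. Washed arrays were scanned on an Axon 4000B, and the binding signal is per-feature fluorescence intensity in arbitrary units.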
Turning to “CGCCATCAAAATCTCTCCGCATCCAACCAAACAGGTCGACCGGAGTCACCTAGTGCAG”, the binding signal was 8130 fluorescence intensity (a.u.).
Then “ACACTGTTTGACATTATTTCAGTCGGCATCTCTCCACTAACGGAGTCACCTAGTGCAG”, with 8050 fluorescence intensity (a.u.).
Then “TTCATATCATTCACCATCTGTTCACAATGTAGGATCGTACCGGAGTCACCTAGTGCAG”, with 9040 fluorescence intensity (a.u.); and “TCTTACTATCATTTATCATTTTTTTATGTTTTATCGTTAACGGAGTCACCTAGTGCAG”, with 8460 fluorescence intensity (a.u.).
For the sequence “AATGGAGGGAGTATTTTTTTTTTCACACCGCGCGGGAGCGCGGAGTCACCTAGTGCAG”, the binding signal was 8320 fluorescence intensity (a.u.).
Then “AAAACCCTCGCCGCCACCGCCACCGCCTCCGCCGCCGCGGCGGAGTCACCTAGTGCAG”, with 10700 fluorescence intensity (a.u.); and “ACAAGGCAAATCTCTTCATGTTGTTGCATCATTGCGTTCACGGAGTCACCTAGTGCAG”, with 9530 fluorescence intensity (a.u.).
For “GTGCAGTGTAATATGTATCCTCTAGCCTCTTTTTCATTCACGGAGTCACCTAGTGCAG”, the binding signal was 10200 fluorescence intensity (a.u.).
The figure for “ATTTGTATTATTTATAAGTTGCACTTATCGTTTATTTTCTCGGAGTCACCTAGTGCAG” is 10200 fluorescence intensity (a.u.); for “ACAATATGCTACATCAAGGGCCTTATCTTTTCGCTTATACCGGAGTCACCTAGTGCAG” it is 9740 fluorescence intensity (a.u.); for “ACCAACGGCCCGAGTCCGACACACGTCTCACGCACGAGCACGGAGTCACCTAGTGCAG” it is 8700 fluorescence intensity (a.u.).
As for “ATTTTGTCCCTCAAAGAGACATTCCCTCGTTTTGTGTATGCGGAGTCACCTAGTGCAG”, the binding signal is 8890 fluorescence intensity (a.u.).
Then “TTTTTATCTGCTCCACTTTCTGTTTTTTTTTCCTGGTGAACGGAGTCACCTAGTGCAG”, with 9190 fluorescence intensity (a.u.).
For “ATCCGTTTTATATTATAAATCATTTGACTTTTTCTATTAGCGGAGTCACCTAGTGCAG”, the binding signal was 8510 fluorescence intensity (a.u.).
Then “GATGTTGCTGTTCAAATTTCTTGTATATCTTCTAAGGCATCGGAGTCACCTAGTGCAG”, with 8480 fluorescence intensity (a.u.); and “GAGATGGTGTGGACTCGTGGTCATGGAGGCGTTGATGCGGCGGAGTCACCTAGTGCAG”, with 8960 fluorescence intensity (a.u.).
The figure for “GAAGTTCCGGCCCAGAAGGCCATAGTTGCATTTCCATCTGCGGAGTCACCTAGTGCAG” is 10100 fluorescence intensity (a.u.).
With “TTTCTTCTCCAAGGCGTCCGTGACATTGGCGCCATCCTTCCGGAGTCACCTAGTGCAG”, the binding signal is 9800 fluorescence intensity (a.u.).
For “GTTTTTTAATAGATAACGCCGTTGACTTTTTTTCACATGTCGGAGTCACCTAGTGCAG”, the binding signal is 21500 fluorescence intensity (a.u.).
“GCAAACGCCCGCTCGCTCCCGTTCGTTTCGTTTCGTTTCCCGGAGTCACCTAGTGCAG”: the binding signal was 11600 fluorescence intensity (a.u.).
As to “GATACAGTTTCGCATTGTCAAGCACAAAATTATCCTCTAACGGAGTCACCTAGTGCAG”, the binding signal is 8130 fluorescence intensity (a.u.).
Take “CCATGCCATCCATTCTCTCAAGGTCACAACAGCTGCTTATCGGAGTCACCTAGTGCAG”: the binding signal is 11500 fluorescence intensity (a.u.).
With “AAGTCCTTAGCACCAATGTTATGGTTGACTTATAAACATCCGGAGTCACCTAGTGCAG”, the binding signal is 8990 fluorescence intensity (a.u.).
As for “TGAGCGTCATTCAGTCAATTCCTACGCTTGTCTCGTTTCACGGAGTCACCTAGTGCAG”, the binding signal was 9220 fluorescence intensity (a.u.).
As for “CTCAACTTCCATCAGGACCCTTATGCTGAGTATGATTTCTCGGAGTCACCTAGTGCAG”, the binding signal was 10100 fluorescence intensity (a.u.).
For “TGGCTTTATACATTCTATGTTAGTGGTATATTATGTGGTACGGAGTCACCTAGTGCAG”, the binding signal is 8530 fluorescence intensity (a.u.).
The figure for “GCGCCGCCCGCCTCACCTCACCGCTGAGCCGCACTTCCCCCGGAGTCACCTAGTGCAG” is 8160 fluorescence intensity (a.u.); for “ATTTTCTACTCTTTTGGTCCCACTAGTCATAGACTCTTTTCGGAGTCACCTAGTGCAG” it is 10800 fluorescence intensity (a.u.); for “TGTTCTGTGAGAATAGTTTCGTCCGTCTTGTTTTCTCCTGCGGAGTCACCTAGTGCAG” it is 8470 fluorescence intensity (a.u.).
The figure for “AAACCCGTGCTCCACCACCGCCTCGTGCAAACCCAACACCCGGAGTCACCTAGTGCAG” is 9490 fluorescence intensity (a.u.); for “ATGTGGTTTTGTGTCTATATGCATCCTCTGTGTAAACCTTCGGAGTCACCTAGTGCAG” it is 12500 fluorescence intensity (a.u.).
The figure for “GAGGGAGGGAGGTGGAAGCGGAGGCGAGTGGGAGGGTGGGCGGAGTCACCTAGTGCAG” is 15500 fluorescence intensity (a.u.).
On to “ACTGCCGCGAATACTACTCTCCATCCCCGCGTAGACTTCGCGGAGTCACCTAGTGCAG”, for which the binding signal was 12900 fluorescence intensity (a.u.).
Then “TTTAACCTAAACCACATGTGAATTTCTTCTTATGTATTCCCGGAGTCACCTAGTGCAG”, with 8700 fluorescence intensity (a.u.).
The figure for “ACCATTTGTTTGAGCTCCGGAACCTTTTCGCCGTCCTATGCGGAGTCACCTAGTGCAG” is 8460 fluorescence intensity (a.u.); for “ATCCTTGCTTTGCTGCTGCGTTGTTCATGATTCCCACCAACGGAGTCACCTAGTGCAG” it is 9080 fluorescence intensity (a.u.); for “TCTAGTTTTTGCAGCCACACTGCCACTCAATGGCTAGACCCGGAGTCACCTAGTGCAG” it is 9650 fluorescence intensity (a.u.).
The figure for “GCATCTCATCTCATCGATCGATCTCGATCCATTTCCGTTTCGGAGTCACCTAGTGCAG” is 9870 fluorescence intensity (a.u.); for “GCCCAGCCGCTCCACCGCCGACAGCGACAGCCCGGCGCGCCGGAGTCACCTAGTGCAG” it is 8970 fluorescence intensity (a.u.).
Regarding “TATACTCCATAGTAGTAAGTTATATCCTCTTTTTTATTTGCGGAGTCACCTAGTGCAG”, the binding signal was 8380 fluorescence intensity (a.u.).
Then “TGTAGTGAGTGTGTGGCCCTTTTTATGGCACTGTTCTTCTCGGAGTCACCTAGTGCAG”, with 9040 fluorescence intensity (a.u.).
For the sequence “GCCGCATGTAGGCCCACAACCCGGCCCATTGCCTACTACTCGGAGTCACCTAGTGCAG”, the binding signal is 8600 fluorescence intensity (a.u.).
